From PubChem BioAssay AID504444 (National Center for Advancing Translational Sciences (NCATS), 2011)
The whole screen tested about 360,000 compounds, of which about 7,500 (2.1%) were called active. This list was built around the results that the source calls inconclusive (neither active nor inactive); the mix of calls is not that of the screen. The call rests on the fitted dose curve; in most records, active means well fitted inhibition curve with a large enough effect; inconclusive means small, poorly fitted or top-dose-only effect, or effect the other way; inactive means flat fitted curve, though single readings scatter. Where the call is inconclusive, the potency comes from a doubtful curve fit.

test: Nrf2 qHTS screen for inhibitors; details: A549 ARE-Fluc reporter, luciferase luminescence, 18-24 h; series mostly up to 46 µM; further: nearly all actives have a fitted effect of over 60% in size
Method in brief: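 Reporter: ARE-Fluc in A549. Exposure: 18-24 h, 37 °C, 5% CO2, 5% FBS OPTI-MEM. Readouts: fluorescent cytotoxicity (CellTiter-Fluor), then luminescent Nrf2 signal after BugLite.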
Potency means the concentration at half of the fitted maximal effect.

Row | Compound | Potency
1 | CCOC(=O)C1CCCCN1Cc1cccc(F)c1 (centres undefined) | inactive
2 | COc1ccccc1OCCNC(=O)c1ccc2c(c1)CCC2 | inconclusive: 9.2 µM [activator, partial curve]
3 | Cc1ccc(C(=O)Nc2ccc(N3CCN(C)CC3)cc2)c(Cl)c1 | inconclusive: 18.4 µM [activator, single point]
4 | CC(=O)Nc1ccc(S(=O)(=O)NCCSCc2cccc(Cl)c2)cc1 | inactive
5 | NC(=O)c1c(NC(=O)c2cnccn2)sc2c1CCCC2 | inconclusive: 3.66 µM [activator, partial curve]
6 | CCOC(=O)c1c(C)[nH]c(C)c1C(=O)COC(=O)c1ccc([N+](=O)[O-])s1 | inconclusive: 32.6 µM [falling, partial curve, poor fit]
7 | CCc1ccc(C(=O)NNC(=O)c2c(CC)noc2C)cc1 | inactive
8 | FC(F)(F)c1ccc(CN2C[C@@H]3C(c4ccc(Cl)nc4)C4(c5cccnc5)CC3(C4)[C@H]2c2ccccc2)cc1 (some centres undefined) | inconclusive: 18.4 µM [falling, single point]
9 | Cc1ccc2nc(-c3sc4nc(C)ccc4c3N)[nH]c2c1 | inconclusive: 2.06 µM [activator, partial curve]
10 | CC(/C=N/NC(=O)c1cc(-c2ccc(C)s2)[nH]n1)=C\c1ccccc1 | inconclusive: 20.6 µM [activator, partial curve]
11 | Cc1ccc(OCCCCn2cnc3ccccc32)c(C)c1 | inconclusive: 25.9 µM [falling, single point]
12 | CCOC(=O)c1sc(NC(C)=O)c(C(=O)OCC)c1C | inconclusive: 2.91 µM [falling, partial curve]
13 | Cc1ccc(-n2nc3c(=O)n(C(C)C(=O)NCCCc4ccccc4)nc(C)c3c2C)cc1 (centres undefined) | active: 10.3 µM
14 | O=C(Nc1ccc(SC(F)(F)F)cc1)c1ccccn1 | inconclusive: 2.31 µM [activator, full curve]
15 | Cn1cc(/C=C/C(=O)c2ccccc2)c2ccccc21 | inconclusive: 11.6 µM [activator, partial curve]
16 | O=C(/C=C/c1ccccc1[N+](=O)[O-])NC1CCCC1 | inconclusive: 5.8 µM [activator, full curve]
17 | COc1ccccc1C(=O)Nc1cc2c(cc1N1CCCC1)n(C)c(=O)c(=O)n2C | inconclusive: 20.6 µM [activator, partial curve, poor fit]
18 | COc1ccc2nc3sc(C(=O)N4CCN(C)CC4)cc3cc2c1 | inactive
19 | CC(=O)c1ccc(N2CCN(C(=O)c3cn(Cc4ccccc4)nc3-c3cccnc3)CC2)c(F)c1 | inconclusive: 14.6 µM [falling, partial curve, poor fit]

A different layout for 4 compounds above:

| Row | Compound | Potency |
| --- | --- | --- |
| 6 | CCOC(=O)c1c(C)[nH]c(C)c1C(=O)COC(=O)c1ccc([N+](=O)[O-])s1 | inconclusive: 32.6 µM [falling, partial curve, poor fit] |
| 8 | FC(F)(F)c1ccc(CN2C[C@@H]3C(c4ccc(Cl)nc4)C4(c5cccnc5)CC3(C4)[C@H]2c2ccccc2)cc1 (some centres undefined) | inconclusive: 18.4 µM [falling, single point] |
| 17 | COc1ccccc1C(=O)Nc1cc2c(cc1N1CCCC1)n(C)c(=O)c(=O)n2C | inconclusive: 20.6 µM [activator, partial curve, poor fit] |
| 18 | COc1ccc2nc3sc(C(=O)N4CCN(C)CC4)cc3cc2c1 | inactive |
